In doi:10.1101/2020.01.24.919092:
Results are given in words; binding and its absence hold for the method and conditions named. In cells and extracts the contact can be indirect. A yes stands for co-enrichment or nearness to the bait. Other partners may have been found.

By UniProt entry, the sequences of proteins in these tests, tags left out. Residues count along the entry.
UniProt Q00610, 1-1074: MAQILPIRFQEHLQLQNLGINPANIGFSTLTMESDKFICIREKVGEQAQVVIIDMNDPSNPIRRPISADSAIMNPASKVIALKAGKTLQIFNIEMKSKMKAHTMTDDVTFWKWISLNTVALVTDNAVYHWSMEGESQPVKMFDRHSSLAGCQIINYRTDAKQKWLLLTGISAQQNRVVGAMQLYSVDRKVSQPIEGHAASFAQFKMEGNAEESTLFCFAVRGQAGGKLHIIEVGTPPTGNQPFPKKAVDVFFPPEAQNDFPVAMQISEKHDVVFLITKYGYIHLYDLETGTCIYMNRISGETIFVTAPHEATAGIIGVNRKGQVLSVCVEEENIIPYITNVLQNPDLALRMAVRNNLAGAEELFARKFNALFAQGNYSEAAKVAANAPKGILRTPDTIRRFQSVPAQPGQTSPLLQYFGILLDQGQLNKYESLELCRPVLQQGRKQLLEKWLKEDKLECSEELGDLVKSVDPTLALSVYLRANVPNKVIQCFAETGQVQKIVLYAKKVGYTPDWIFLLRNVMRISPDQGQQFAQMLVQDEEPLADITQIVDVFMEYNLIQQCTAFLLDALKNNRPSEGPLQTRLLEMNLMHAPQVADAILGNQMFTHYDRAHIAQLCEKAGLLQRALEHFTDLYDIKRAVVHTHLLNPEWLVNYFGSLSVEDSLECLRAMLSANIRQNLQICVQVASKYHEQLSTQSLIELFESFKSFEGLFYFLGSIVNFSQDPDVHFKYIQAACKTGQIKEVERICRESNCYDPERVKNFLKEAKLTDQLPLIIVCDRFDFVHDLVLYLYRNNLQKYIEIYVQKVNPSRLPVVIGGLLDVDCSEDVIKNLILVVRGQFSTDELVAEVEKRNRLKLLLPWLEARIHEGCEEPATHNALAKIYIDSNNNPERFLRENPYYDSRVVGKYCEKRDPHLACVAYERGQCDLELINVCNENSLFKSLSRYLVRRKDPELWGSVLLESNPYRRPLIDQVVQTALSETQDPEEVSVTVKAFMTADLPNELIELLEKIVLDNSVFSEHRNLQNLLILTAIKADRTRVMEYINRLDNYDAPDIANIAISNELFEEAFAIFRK

Target: HA-tagged TDD (N-terminal domain + distal leg of clathrin heavy chain, residues 1-1074) (UniProt Q00610)
Experiment: affinity purification with mass spectrometry

binding: binds
Substance: SNX9 (endogenous, ARPE cells) (from UniProt Q9Y5X1 1-595)
